These results are taken from US20180195077.

The chains behind the UniProt entries cited, without tags or fusion partners. Where a name states a change or a piece, a line headed by the entry shows the natural chain unless it says otherwise.
UniProt Q8NE71: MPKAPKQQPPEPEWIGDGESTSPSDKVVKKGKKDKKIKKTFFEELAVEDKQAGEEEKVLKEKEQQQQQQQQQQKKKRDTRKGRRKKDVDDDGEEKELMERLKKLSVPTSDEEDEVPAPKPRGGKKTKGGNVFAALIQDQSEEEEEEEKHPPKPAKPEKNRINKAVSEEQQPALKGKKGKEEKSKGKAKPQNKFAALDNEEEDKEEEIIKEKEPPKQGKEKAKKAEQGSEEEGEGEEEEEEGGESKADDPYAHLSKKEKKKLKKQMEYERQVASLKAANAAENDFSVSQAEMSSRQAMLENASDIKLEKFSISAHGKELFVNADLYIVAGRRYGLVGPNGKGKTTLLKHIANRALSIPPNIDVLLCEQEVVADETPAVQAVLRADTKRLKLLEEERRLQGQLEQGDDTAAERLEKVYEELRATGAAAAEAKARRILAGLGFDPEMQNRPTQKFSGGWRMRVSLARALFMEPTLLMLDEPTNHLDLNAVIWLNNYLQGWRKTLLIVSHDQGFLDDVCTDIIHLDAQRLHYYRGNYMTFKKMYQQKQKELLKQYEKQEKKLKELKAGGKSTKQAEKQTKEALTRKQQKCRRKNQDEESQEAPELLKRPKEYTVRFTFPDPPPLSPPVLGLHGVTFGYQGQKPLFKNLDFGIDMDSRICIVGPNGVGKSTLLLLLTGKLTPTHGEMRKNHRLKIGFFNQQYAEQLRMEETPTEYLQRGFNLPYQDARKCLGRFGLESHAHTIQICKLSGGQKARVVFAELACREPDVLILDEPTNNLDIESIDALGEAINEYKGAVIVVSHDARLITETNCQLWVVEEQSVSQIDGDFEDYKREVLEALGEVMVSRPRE

Data set [1] relates to eIF3 complex (13 subunits a-m). The data set is described as follows: binding assay. The note with it: m6A at the single A [4 (m6A)], UV crosslinking, purified native protein, protein details: native complex purified per Pisarev et al. 2007, label: 32P-CTP, letters built from the parent sequence and the stated change.
A further data set deals with ABCF1 (Homo sapiens) (UniProt Q8NE71). The data set is described as follows: pull-down. The note with it: m6A at the single A [4 (m6A)]; protein in an extract; label: 32P-CTP; letters built from the parent sequence and the stated change.
Data set [2] deals with eIF3 complex (immunoprecipitated with anti-eIF3a or anti-eIF3b) (Homo sapiens). As to the kind of experiment: pull-down. The conditions noted are these: m6A at the single A [4 (m6A)]; protein in an extract; label: 32P-CTP; letters built from the parent sequence and the stated change.
Where [3] appears, read: significantly reduced versus GGAC context, variant of GGAC m6A probe.

For at least one entry, the source does not settle the construct or the ends of the probe. For some assays here: A weaker result is weaker than the reference pair of the same experiment. For some assays here: Where cells or extracts were used, other partners may take part. For some assays here: Negatives hold for the conditions tested.

As for GGCAGUUUUUUUUUUUUUUU [GCAG m6A probe], in data set [1] (setting [3]), the binding result is “binds more weakly”.

For the sequence GGGACUUUUUUUUUUUUUU [GGAC m6A probe], the binding result in the data set with ABCF1 (Homo sapiens) is “no binding”; in data set [2], “binds”; in data set [1] (strongly increased over A probe, bands 60-160 kDa, poly-U competitor, 10 mM HEPES pH 7.4, 140 mM KCl, 1 mM MgCl2, 25 C) it was “binds”.

For the sequence GGUACUUUUUUUUUUUUUU [GUAC m6A probe], the binding result in data set [1] (setting [3]) is recorded as “binds more weakly”.
